Assay results as given in publication doi:10.1101/2023.03.06.531332.
These are yes or no findings as the source states them, for the method shown. Binding seen in cells or lysates may run through a third protein. Sequences can lack the tags named with a protein.

Target: FLAG-NHERF1 S1S2 (GYGF to GAGA in the carboxylate-binding loops of both PDZ domains) (UniProt O14745)
Experiment: co-IP

B1: HA-GFP-NPT2A CT-AAA (carboxy-terminal -TRL639 PDZ ligand replaced with a triple Ala sequence) (protein, UniProt Q06495 1-639)
chain: MLSYGERLGSPAVSPLPVRGGHVMRGTAFAYVPSPQVLHRIPGTSAYAFPSLGPVALAEHTCPCGEVLERHEPLPAKLALEEEQKPESRLVPKLRQAGAMLLKVPLMLTFLYLFVCSLDMLSSAFQLAGGKVAGDIFKDNAILSNPVAGLVVGILVTVLVQSSSTSTSIIVSMVSSGLLEVSSAIPIIMGSNIGTSVTNTIVALMQAGDRTDFRRAFAGATVHDCFNWLSVLVLLPLEAATGYLHHITRLVVASFNIHGGRDAPDLLKIITEPFTKLIIQLDESVITSIATGDESLRNHSLIQIWCHPDSLQAPTSMSRAEANSSQTLGNATMEKCNHIFVDTGLPDLAVGLILLAGSLVLLCTCLILLVKMLNSLLKGQVAKVIQKVINTDFPAPFTWVTGYFAMVVGASMTFVVQSSSVFTSAITPLIGLGVISIERAYPLTLGSNIGTTTTAILAALASPREKLSSAFQIALCHFFFNISGILLWYPVPCTRLPIRMAKALGKRTAKYRWFAVLYLLVCFLLLPSLVFGISMAGWQVMVGVGTPFGALLAFVVLINVLQSRSPGHLPKWLQTWDFLPRWMHSLKPLDHLITRATLCCARPEPRSPPLPPRVFLEELPPATPSPRLALPAHHNAAAA
B1 was tested, and the binding was “no binding”.
